Where a chain is given by its changes, count along the chain named. In names and notes the source's numbering stands. These are yes or no findings as the source states them, for the method shown.
T1: recombinant human Lin28A (residues 1-209) (human) (UniProt Q9H9Z2)
T1 sequence: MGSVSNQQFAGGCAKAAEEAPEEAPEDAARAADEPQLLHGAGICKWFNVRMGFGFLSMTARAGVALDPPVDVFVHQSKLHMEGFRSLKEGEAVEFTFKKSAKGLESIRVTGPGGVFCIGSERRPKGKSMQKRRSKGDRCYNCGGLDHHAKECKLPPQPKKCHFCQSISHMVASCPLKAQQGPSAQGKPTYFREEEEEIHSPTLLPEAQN

B1: hTUT4_N C306A/C309A (domain or fragment, UniProt Q5TAX3)
chain: SEMDYLENATVIDESALTPEQRLGLKQAEERLERDHIFRLEKRSPEYTNCRYLAKLALIHIENIQGAHKHIKEKRHKKNILEKQEESELRSLPPPSPAHLAALSVAVIELAKEHGITDDDLRVRQEIVEEMSKVITTFLPECSLRLYGSSLTRFALKSSDVNIDIKFPPKMNHPDLLIKVLGILKKNVLYVDVESDFHAKVPVVVCRDRKSGLLCRVSAGNDMACLTTDLLTALGKIEPVFIPLVLAFRYWAKLCYIDSQTDGGIPSYCFALMVMFFLQQRKPPLLPCLLGSWIEGFDPKRMDDFQLKGIVEEKFVKWECNSSSATKEKHGKSPLALETPNRVSLGQLWLELLKFYTLDFALEEYVICVRIQDILTRENKNWPKRRIAIEDPFSVKRNVARSLNSQLVYEYVVERFRAAYRYFACPQTKGGNKSTVDFK
B2: hTUT4_N K321A/K324A (domain or fragment, UniProt Q5TAX3)
chain: B1 chain with A54C, A57C, K69A, K72A
B3: hTUT4_N K326A/R327A (domain or fragment, UniProt Q5TAX3)
chain: B1 chain with A54C, A57C, K74A, R75A
B4: hTUT4_N K329A/K330A (domain or fragment, UniProt Q5TAX3)
chain: B1 chain with A54C, A57C, K77A, K78A

Target: T1, recombinant human Lin28A (residues 1-209) (human)
Assay: condition: 300 nM hTUT4 protein, 300 nM hLin28A, 100 nM pre-let-7a-1; native gel or EMSA; 300 nM recombinant hTUT4 protein with 100 nM pre-let-7a-1, with or without 300 nM recombinant hLin28A; 50 mM Tris-HCl pH 8.5, 100 mM NaCl, 10 mM MgCl2, 10 mM β-mercaptoethanol, 10% glycerol, 10 min at room temperature; native polyacrylamide gel stained with ethidium bromide; both purified

Binder	binding
B1	no binding
B2	no binding
B3	no binding
B4	no binding

Reference: PMC6488673, “Crystal structure of the Lin28-interacting module of human terminal uridylyltransferase that regulates let-7 expression”
